Amino acid sequences for entries named in this document (tags omitted).
UniProt Q676U5: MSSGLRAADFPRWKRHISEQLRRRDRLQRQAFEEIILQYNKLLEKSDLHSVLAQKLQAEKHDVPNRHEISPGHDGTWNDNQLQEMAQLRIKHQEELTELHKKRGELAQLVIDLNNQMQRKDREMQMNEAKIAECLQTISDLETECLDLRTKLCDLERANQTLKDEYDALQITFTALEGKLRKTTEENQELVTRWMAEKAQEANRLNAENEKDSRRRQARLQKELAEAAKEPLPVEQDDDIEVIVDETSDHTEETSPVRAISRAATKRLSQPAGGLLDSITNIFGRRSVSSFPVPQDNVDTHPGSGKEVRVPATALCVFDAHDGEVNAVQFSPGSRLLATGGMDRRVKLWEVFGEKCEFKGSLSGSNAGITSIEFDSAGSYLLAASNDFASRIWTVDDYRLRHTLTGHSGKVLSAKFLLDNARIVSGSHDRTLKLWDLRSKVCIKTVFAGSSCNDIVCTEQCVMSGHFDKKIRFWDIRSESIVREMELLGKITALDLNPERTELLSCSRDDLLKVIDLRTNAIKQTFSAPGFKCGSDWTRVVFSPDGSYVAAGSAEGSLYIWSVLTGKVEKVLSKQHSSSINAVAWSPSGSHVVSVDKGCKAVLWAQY

According to PMC6377711:

B1: Cherry-Gigaxonin (human, full-length) (protein, UniProt Q9H2C0 1-597)
chain: MAEGSAVSDPQHAARLLRALSSFREESRFCDAHLVLDGEEIPVQKNILAAASPYIRTKLNYNPPKDDGSTYKIELEGISVMVMREILDYIFSGQIRLNEDTIQDVVQAADLLLLTDLKTLCCEFLEGCIAAENCIGIRDFALHYCLHHVHYLATEYLETHFRDVSSTEEFLELSPQKLKEVISLEKLNVGNERYVFEAVIRWIAHDTEIRKVHMKDVMSALWVSGLDSSYLREQMLNEPLVREIVKECSNIPLSQPQQGEAMLANFKPRGYSECIVTVGGEERVSRKPTAAMRCMCPLYDPNRQLWIELAPLSMPRINHGVLSAEGFLFVFGGQDENKQTLSSGEKYDPDANTWTALPPMNEARHNFGIVEIDGMLYILGGEDGEKELISMECYDIYSKTWTKQPDLTMVRKIGCYAAMKKKIYAMGGGSYGKLFESVECYDPRTQQWTAICPLKERRFGAVACGVAMELYVFGGVRSREDAQGSEMVTCKSEFYHDEFKRWIYLNDQNLCIPASSSFVYGAVPIGASIYVIGDLDTGTNYDYVREFKRSTGTWHHTKPLLPSDLRRTGCAALRIANCKLFRLQLQQGLFRIRVHSP

What was measured:
[1] = target: Flag-Gigaxonin ΔC deletion construct (BTB) (human) (UniProt Q9H2C0); test: co-IP; COS-7 cells transiently transfected and treated with MG132; anti-Flag or anti-Cherry antibodies on Dynabeads Protein G incubated with 500 µg of lysate protein for 2 h at room temperature in PBS tween 0.02%; immunoblot with Cherry/Flag antibodies; normal mouse IgG as negative control
[2] = target: Flag-ATG16L1-ΔN (mouse deletion construct) (mouse); test: as above

Molecule | binding [1] | binding [2]
Cherry-ATG16L1 (human) (from UniProt Q676U5 1-607) | binds | –
B1 | – | binds

No constants are given. Whether binding was seen depends on the method and setting. In cells and extracts the contact can be indirect. A result given as binding can be weak or reduced; the word gives no strength.
